Test results taken from publication PMC8500980.
Results are given in words; binding and its absence hold for the method and conditions named. Binding seen in cells or lysates may run through a third protein. Some binding calls cover weakened binding; strength is not graded here.

Tests used:
[1] = biological target: T1, FKBP51 (human (endogenous in A549 and SPC-A1)) (UniProt Q13451); experiment: co-IP; total cell lysate incubated overnight with antibody against FKBP51, protein G sepharose, SDS-PAGE and immunoblot; cells with control or si-CCAT1 transfection
T1 sequence: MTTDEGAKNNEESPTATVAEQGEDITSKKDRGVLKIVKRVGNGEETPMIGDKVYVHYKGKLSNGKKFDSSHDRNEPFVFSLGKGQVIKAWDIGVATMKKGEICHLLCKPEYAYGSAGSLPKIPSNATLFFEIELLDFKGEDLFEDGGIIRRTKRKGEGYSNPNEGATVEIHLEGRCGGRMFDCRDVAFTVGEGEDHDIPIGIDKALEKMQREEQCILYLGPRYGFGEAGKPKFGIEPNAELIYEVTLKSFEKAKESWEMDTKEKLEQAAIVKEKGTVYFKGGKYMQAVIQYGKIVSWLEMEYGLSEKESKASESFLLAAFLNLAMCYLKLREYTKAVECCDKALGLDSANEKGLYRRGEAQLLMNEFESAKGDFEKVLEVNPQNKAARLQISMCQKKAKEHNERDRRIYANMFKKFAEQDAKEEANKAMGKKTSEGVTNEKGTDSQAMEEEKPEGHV

[2] = biological target: T1, FKBP51 (human (endogenous in A549 and SPC-A1)); experiment: condition: only in cells overexpressing the lncRNA CCAT1; co-IP; total cell lysate incubated overnight with antibody against FKBP51, protein G sepharose, SDS-PAGE and immunoblot; cells overexpressing the lncRNA CCAT1 (pcDNA3.1/CCAT1)

B1: ubiquitin specific peptidase 49 (USP49) (enzyme, UniProt Q70CQ1 1-688)
chain: MDRCKHVGRLRLAQDHSILNPQKWCCLECATTESVWACLKCSHVACGRYIEDHALKHFEETGHPLAMEVRDLYVFCYLCKDYVLNDNPEGDLKLLRSSLLAVRGQKQDTPVRRGRTLRSMASGEDVVLPQRAPQGQPQMLTALWYRRQRLLARTLRLWFEKSSRGQAKLEQRRQEEALERKKEEARRRRREVKRRLLEELASTPPRKSARLLLHTPRDAGPAASRPAALPTSRRVPAATLKLRRQPAMAPGVTGLRNLGNTCYMNSILQVLSHLQKFRECFLNLDPSKTEHLFPKATNGKTQLSGKPTNSSATELSLRNDRAEACEREGFCWNGRASISRSLELIQNKEPSSKHISLCRELHTLFRVMWSGKWALVSPFAMLHSVWSLIPAFRGYDQQDAQEFLCELLHKVQQELESEGTTRRILIPFSQRKLTKQVLKVVNTIFHGQLLSQVTCISCNYKSNTIEPFWDLSLEFPERYHCIEKGFVPLNQTECLLTEMLAKFTETEALEGRIYACDQCNSKRRKSNPKPLVLSEARKQLMIYRLPQVLRLHLKRFRWSGRNHREKIGVHVVFDQVLTMEPYCCRDMLSSLDKETFAYDLSAVVMHHGKGFGSGHYTAYCYNTEGGFWVHCNDSKLNVCSVEEVCKTQAYILFYTQRTVQGNARISETHLQAQVQSSNNDEGRPQTFS
[1]
  binding: binds
[2]
  binding: no binding
